This is one part of the list.
What was measured:
Test in all cases: log2 fold change, soluble protein after heating vs DMSO (PISA); higher = thermal stabilisation; K562 lysate, 10 uM; active = over 0.2 and 3.5 SD of the protein, either way, in both replicates (recomputed)
[1] = compound: CCCS(=O)(=O)Nc1ccc(F)c(C(=O)c2c[nH]c3ncc(-c4ccc(Cl)cc4)cc23)c1F [vemurafenib]
Method in brief: (§1)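 K562 pellets were dounce-homogenised in PBS pH 7.4 containing 1 mM MgCl2, and the crude extract, at 1 mg/mL protein, was exposed to 10 μM compound for 30 min. Aliquots were heated for 3 min across 48°C-58°C, pooled, brought to 0.5% NP-40 at 4°C and spun at 21,000xg for 90 min, with the supernatant taken as soluble protein. TMTpro 16plex LC-MS/MS with equalised channel sums quantified that protein. Values are log-two fold changes in thermal stability relative to solvent controls, taken from duplicates.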

Sequences of proteins named here, by UniProt entry; tags and fusion partners are left off. A change or cut given only in a name is not applied to a line headed by its entry.
UniProt Q9Y6B6: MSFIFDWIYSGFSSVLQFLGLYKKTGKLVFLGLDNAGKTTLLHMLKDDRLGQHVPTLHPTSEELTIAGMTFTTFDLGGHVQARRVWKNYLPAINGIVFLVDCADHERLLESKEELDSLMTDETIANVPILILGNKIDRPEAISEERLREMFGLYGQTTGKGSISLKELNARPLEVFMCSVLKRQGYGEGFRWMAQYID
UniProt P31040: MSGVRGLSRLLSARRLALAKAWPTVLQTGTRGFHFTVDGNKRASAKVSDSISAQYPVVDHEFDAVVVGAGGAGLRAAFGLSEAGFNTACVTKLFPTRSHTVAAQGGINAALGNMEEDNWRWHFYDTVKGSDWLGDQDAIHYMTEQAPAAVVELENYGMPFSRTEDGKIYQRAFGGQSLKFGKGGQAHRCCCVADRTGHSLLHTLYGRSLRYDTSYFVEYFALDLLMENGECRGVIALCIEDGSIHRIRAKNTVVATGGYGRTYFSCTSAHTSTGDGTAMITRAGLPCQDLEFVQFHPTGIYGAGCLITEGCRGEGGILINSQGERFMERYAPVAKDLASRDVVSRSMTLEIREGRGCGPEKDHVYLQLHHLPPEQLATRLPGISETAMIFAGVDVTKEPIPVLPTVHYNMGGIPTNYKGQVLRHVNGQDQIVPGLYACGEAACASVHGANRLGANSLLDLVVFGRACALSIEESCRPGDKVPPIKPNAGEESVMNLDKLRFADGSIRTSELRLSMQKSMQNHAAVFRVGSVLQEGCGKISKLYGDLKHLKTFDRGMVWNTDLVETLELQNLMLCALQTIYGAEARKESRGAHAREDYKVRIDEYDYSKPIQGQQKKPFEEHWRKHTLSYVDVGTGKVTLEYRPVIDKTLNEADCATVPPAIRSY
UniProt Q9BRK5: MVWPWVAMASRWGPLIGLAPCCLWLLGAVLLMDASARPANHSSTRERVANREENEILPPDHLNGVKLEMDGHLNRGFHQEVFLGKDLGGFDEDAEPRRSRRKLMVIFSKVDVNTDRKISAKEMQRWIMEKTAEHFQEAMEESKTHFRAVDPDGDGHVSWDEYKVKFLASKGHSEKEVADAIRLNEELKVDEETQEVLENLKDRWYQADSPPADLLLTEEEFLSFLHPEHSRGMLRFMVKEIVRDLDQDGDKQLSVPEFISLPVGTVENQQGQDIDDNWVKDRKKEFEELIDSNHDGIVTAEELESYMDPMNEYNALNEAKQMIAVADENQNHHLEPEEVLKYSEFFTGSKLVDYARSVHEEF
UniProt Q9H7N4: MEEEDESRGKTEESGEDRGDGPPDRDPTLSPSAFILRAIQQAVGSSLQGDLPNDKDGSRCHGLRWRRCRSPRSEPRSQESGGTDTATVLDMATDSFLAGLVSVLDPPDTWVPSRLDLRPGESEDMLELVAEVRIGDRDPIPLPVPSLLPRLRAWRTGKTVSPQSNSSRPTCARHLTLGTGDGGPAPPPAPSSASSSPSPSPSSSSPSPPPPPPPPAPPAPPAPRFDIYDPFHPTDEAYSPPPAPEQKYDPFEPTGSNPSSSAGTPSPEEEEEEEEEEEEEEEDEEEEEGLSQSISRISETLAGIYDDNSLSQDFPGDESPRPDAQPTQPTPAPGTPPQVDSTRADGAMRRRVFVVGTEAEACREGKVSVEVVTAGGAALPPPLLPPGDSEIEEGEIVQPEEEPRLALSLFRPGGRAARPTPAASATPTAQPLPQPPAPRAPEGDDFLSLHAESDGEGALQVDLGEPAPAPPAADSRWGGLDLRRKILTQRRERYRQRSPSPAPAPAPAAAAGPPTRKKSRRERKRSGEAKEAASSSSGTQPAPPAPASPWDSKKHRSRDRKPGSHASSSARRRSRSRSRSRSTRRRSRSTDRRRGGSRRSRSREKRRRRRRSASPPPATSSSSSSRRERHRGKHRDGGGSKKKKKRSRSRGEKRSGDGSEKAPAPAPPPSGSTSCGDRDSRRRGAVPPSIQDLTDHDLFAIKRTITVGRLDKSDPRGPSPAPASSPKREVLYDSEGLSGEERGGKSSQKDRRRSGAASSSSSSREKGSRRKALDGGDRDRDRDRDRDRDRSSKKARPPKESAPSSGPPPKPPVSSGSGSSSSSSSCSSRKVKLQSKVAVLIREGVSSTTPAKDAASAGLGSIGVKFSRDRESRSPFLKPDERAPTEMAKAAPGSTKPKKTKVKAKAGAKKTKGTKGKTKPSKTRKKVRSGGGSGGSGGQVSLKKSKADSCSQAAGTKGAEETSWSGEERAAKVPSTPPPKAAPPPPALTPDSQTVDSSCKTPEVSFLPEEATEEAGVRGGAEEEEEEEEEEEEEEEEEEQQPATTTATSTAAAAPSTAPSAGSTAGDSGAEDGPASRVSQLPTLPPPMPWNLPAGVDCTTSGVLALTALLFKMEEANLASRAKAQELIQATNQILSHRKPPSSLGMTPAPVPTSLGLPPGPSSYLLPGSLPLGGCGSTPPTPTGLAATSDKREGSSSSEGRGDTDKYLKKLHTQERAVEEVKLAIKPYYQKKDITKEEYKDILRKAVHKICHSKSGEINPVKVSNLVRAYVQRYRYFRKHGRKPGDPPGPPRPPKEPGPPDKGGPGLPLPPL
UniProt Q96GA7: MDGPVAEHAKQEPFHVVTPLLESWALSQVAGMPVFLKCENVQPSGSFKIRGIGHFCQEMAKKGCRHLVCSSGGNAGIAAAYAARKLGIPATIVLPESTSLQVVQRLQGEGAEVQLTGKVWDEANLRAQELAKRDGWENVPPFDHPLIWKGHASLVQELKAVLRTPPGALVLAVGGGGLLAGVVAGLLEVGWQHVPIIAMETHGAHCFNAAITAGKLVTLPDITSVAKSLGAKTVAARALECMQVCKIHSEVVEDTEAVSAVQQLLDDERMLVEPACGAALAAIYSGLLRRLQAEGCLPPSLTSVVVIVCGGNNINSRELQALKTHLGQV
UniProt Q14141: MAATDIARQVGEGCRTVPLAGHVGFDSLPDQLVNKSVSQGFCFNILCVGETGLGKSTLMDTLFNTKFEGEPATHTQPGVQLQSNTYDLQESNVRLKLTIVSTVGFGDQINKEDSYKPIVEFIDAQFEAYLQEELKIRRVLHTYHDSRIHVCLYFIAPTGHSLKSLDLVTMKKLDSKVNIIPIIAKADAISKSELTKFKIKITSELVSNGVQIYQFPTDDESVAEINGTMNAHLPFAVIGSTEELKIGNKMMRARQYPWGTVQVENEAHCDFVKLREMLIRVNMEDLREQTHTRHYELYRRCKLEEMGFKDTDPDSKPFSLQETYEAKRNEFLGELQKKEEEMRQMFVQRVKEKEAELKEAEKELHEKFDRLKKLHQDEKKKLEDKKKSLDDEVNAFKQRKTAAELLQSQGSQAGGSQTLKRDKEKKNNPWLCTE
UniProt Q6P3W7: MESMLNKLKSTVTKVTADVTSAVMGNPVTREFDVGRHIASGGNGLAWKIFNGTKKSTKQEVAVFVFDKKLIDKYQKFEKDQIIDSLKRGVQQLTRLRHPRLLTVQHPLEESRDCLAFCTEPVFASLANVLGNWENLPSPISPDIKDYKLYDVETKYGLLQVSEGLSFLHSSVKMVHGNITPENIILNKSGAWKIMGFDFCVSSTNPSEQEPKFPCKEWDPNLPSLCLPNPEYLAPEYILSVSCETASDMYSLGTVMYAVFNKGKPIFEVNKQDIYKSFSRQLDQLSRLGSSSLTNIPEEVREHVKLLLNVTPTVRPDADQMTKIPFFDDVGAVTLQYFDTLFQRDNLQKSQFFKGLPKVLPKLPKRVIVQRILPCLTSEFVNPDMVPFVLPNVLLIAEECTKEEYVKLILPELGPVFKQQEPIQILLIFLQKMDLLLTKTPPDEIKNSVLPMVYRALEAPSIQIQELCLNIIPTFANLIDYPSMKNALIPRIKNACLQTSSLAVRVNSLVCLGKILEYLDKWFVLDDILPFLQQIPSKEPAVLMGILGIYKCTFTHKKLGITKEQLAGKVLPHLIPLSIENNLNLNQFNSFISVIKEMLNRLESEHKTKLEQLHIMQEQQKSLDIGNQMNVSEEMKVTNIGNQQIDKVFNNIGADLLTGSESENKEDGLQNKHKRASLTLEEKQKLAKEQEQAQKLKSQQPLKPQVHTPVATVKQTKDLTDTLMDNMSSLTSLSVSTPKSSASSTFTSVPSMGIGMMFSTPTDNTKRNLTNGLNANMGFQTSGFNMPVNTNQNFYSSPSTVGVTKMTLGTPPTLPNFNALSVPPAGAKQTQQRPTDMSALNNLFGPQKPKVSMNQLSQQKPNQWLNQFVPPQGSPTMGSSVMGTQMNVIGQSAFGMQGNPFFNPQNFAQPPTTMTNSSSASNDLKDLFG
UniProt Q13228: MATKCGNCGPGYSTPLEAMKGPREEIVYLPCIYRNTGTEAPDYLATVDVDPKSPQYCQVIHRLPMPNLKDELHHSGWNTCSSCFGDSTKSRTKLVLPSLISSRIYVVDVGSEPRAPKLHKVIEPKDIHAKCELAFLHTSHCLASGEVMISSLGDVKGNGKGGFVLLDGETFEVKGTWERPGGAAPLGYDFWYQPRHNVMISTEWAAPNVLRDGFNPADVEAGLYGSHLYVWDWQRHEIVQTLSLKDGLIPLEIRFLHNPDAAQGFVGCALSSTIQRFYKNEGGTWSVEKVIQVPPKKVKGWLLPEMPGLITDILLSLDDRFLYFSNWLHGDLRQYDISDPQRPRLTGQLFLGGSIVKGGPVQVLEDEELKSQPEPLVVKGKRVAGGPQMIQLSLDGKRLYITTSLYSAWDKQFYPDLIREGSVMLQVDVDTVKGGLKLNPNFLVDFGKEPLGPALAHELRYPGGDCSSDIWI
UniProt Q9UBE0: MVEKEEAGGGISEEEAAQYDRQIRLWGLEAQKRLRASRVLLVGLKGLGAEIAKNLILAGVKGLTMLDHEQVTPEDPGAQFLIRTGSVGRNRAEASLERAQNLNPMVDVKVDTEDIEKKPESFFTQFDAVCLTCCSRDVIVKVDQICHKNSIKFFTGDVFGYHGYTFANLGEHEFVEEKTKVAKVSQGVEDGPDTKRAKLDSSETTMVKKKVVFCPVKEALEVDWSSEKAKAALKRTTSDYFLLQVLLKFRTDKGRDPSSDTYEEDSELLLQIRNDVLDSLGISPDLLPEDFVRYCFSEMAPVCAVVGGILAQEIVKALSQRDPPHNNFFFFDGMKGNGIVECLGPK
UniProt O15126: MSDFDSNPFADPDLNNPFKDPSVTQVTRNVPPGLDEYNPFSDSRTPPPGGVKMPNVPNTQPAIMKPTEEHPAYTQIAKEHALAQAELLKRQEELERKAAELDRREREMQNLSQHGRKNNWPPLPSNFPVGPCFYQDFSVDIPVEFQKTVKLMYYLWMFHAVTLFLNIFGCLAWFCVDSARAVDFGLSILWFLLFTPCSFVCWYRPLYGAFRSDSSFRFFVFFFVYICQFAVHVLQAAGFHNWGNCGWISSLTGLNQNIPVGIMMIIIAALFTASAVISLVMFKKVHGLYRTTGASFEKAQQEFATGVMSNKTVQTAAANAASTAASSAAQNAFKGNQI
UniProt P25815: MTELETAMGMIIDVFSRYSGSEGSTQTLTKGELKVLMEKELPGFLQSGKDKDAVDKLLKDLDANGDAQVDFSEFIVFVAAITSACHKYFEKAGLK
UniProt Q6UVJ0: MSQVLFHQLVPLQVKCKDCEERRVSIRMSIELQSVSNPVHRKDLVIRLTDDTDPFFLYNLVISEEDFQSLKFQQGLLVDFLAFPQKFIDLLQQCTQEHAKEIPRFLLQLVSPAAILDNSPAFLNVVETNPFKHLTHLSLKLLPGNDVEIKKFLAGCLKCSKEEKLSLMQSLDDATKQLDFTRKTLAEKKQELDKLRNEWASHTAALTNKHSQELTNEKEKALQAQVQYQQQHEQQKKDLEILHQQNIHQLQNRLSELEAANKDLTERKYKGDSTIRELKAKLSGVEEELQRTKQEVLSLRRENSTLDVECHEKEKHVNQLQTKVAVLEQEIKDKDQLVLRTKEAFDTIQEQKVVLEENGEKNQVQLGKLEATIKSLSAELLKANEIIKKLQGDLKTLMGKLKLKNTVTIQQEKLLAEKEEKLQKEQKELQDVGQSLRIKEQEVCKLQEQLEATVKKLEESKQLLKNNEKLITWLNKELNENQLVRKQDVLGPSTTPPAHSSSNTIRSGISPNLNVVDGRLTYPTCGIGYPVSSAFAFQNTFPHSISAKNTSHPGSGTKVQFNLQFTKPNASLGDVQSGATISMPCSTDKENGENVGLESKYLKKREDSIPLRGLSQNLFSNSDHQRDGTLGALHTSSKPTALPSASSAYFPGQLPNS
UniProt O43819: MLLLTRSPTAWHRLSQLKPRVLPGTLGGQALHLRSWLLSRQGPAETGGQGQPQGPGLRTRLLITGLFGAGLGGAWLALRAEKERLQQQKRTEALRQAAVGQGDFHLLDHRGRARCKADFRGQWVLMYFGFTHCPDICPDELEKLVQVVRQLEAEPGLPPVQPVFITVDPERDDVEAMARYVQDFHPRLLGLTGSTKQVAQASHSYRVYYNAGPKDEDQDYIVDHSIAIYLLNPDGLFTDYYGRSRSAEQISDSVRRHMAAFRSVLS
UniProt Q9BQE4, whole entry, looked up: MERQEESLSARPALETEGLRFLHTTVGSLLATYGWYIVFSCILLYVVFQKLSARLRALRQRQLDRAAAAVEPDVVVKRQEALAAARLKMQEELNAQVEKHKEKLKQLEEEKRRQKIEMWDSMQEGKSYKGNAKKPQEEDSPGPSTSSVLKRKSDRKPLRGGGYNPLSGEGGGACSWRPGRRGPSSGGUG

[2] = compound: CCCS(=O)(=O)Nc1ccc(F)c(C(=O)c2c[nH]c3ncc(Cl)cc23)c1F
Method in brief: as §1

[3] = compound: CCN(CCCOc1ccc2c(Nc3cc(CC(=O)Nc4cccc(F)c4)[nH]n3)ncnc2c1)CCOP(=O)(O)O [barasertib]
Method in brief: as §1

[4] = compound: CC[C@@H]1C(=O)N(C)c2cnc(Nc3ccc(C(=O)NC4CCN(C)CC4)cc3OC)nc2N1C1CCCC1
Method in brief: as §1

[5] = compound: CC[C@@H]1C(=O)N(C)c2cnc(Nc3ccc(C(=O)N[C@H]4CC[C@H](N5CCN(CC6CC6)CC5)CC4)cc3OC)nc2N1C(C)C [volasertib]
Method in brief: as §1

[6] = compound: CCn1c(C(=O)N(C2CC2)C2CC2)cc2c3c(ncn3C)c(Nc3cc(C)n(C)n3)nc21
Method in brief: as §1

[7] = compound: CCn1cc(-c2ccnc3[nH]c(-c4cccc(CN(C)C)c4)cc23)c(-c2ccc(NC(=O)N(C)C)cc2)n1
Method in brief: as §1

[8] = compound: CN1CCC(CNc2ccc3ncc(-c4cccc(OC(F)(F)F)c4)n3n2)CC1
Method in brief: as §1

[9] = compound: CN1CCN(CCOc2cc(OC3CCOCC3)c3c(Nc4c(Cl)ccc5c4OCO5)ncnc3c2)CC1 [saracatinib]
Method in brief: as §1

[10] = compound: CN1CCN(c2nc(C3=C(c4c[nH]c5ccccc45)C(=O)NC3=O)c3ccccc3n2)CC1 [sotrastaurin]
Method in brief: as §1

[11] = compound: CN1CC[C@H](c2c(O)cc(O)c3c(=O)cc(-c4ccccc4Cl)oc23)[C@H](O)C1 [alvocidib]
Method in brief: as §1

[12] = compound: CN1CCc2c(c3ccccc3n2Cc2ccc(C(=O)NO)cc2)C1 [Tubastatin A]
Method in brief: as §1

[13] = compound: CNC(=O)C1=CC=CC=C1NC2=NC(=NC=C2Cl)NC3=C(C=C(C=C3)N4CCOCC4)OC
Method in brief: as §1

[14] = compound: CNC(=O)c1ccc(Nc2ncc(C(F)(F)F)c(NCc3nccnc3N(C)S(C)(=O)=O)n2)cc1 [defactinib]
Method in brief: as §1

[15] = compound: CNc1nc(-c2ccc3c(N)n[nH]c3c2)cc(N2C[C@@H](C(=O)NC3CCCCC3)CC[C@H]2C)n1
Method in brief: as §1

[16] = compound: COC(=O)N[C@@H](C)CNc1nccc(-c2cn(C(C)C)nc2-c2cc(Cl)cc(NS(C)(=O)=O)c2F)n1 [encorafenib]
Method in brief: as §1

[17] = compound: COC(=O)[C@H](CCSC)NC(=O)C1=C(C=C(C=C1)NC[C@H](CS)N)C2=CC=CC=C2
Method in brief: as §1

[18] = compound: COc1cc(Nc2ncc3c(n2)-c2ccc(Cl)cc2C(c2c(F)cccc2OC)=NC3)ccc1C(=O)O [alisertib]
Method in brief: as §1

[19] = compound: COc1cc2nc(-c3cc(F)ccc3O)nc(N[C@@H]3CNC[C@H]3C(C)(C)O)c2cc1OC
Method in brief: as §1

[20] = compound: COc1cc2ncnc(Nc3ccc(F)c(Cl)c3)c2cc1OCCCN1CCOCC1 [gefitinib]
Method in brief: as §1

Target	log2 fold change [1]	log2 fold change [2]	log2 fold change [3]	log2 fold change [4]	log2 fold change [5]	log2 fold change [6]	log2 fold change [7]	log2 fold change [8]	log2 fold change [9]	log2 fold change [10]	log2 fold change [11]	log2 fold change [12]	log2 fold change [13]	log2 fold change [14]	log2 fold change [15]	log2 fold change [16]	log2 fold change [17]	log2 fold change [18]	log2 fold change [19]	log2 fold change [20]
SAR1B (UniProt Q9Y6B6)	inactive: 0.034	inactive: 0	inactive: 0.165	inactive: 0.04	inactive: -0.042	inactive: 0.017	inactive: -0.017	inactive: -0.09	inactive: 0.041	inactive: 0.047	inactive: 0.032	inactive: 0.176	inactive: 0.199	inactive: 0.05	inactive: 0.147	inactive: 0.203	inactive: 0.052	inactive: 0.128	inactive: 0.145	inactive: 0.015
SDHA (UniProt P31040)	inactive: 0.042	inactive: 0.018	inactive: -0.032	inactive: -0.004	inactive: 0.002	inactive: -0.003	inactive: -0.022	inactive: 0.02	inactive: -0.02	inactive: 0.005	inactive: -0.004	inactive: -0.012	inactive: 0	inactive: -0.04	inactive: 0.002	inactive: -0.023	inactive: -0.04	inactive: -0.023	inactive: -0.014	inactive: -0.031
SDF4 (UniProt Q9BRK5)	inactive: -0.013	inactive: -0.009	inactive: -0.018	inactive: 0.03	inactive: 0.012	inactive: 0.036	inactive: 0.099	inactive: -0.059	inactive: -0.017	inactive: 0.008	inactive: 0.036	inactive: -0.002	inactive: -0.001	inactive: 0.012	inactive: -0.078	inactive: -0.015	inactive: -0.022	inactive: -0.018	inactive: 0.011	inactive: -0.01
SCAF1 (UniProt Q9H7N4)	inactive: 0.027	inactive: 0.093	inactive: 0.079	inactive: 0.089	inactive: -0.114	inactive: 0.05	inactive: -0.041	inactive: 0.008	inactive: 0.009	inactive: -0.029	inactive: 0.054	inactive: 0.034	inactive: -0.051	inactive: 0.046	inactive: 0.051	inactive: -0.028	inactive: -0.066	inactive: 0.128	inactive: -0.02	inactive: 0.129
SDSL (UniProt Q96GA7)	inactive: -0.034	inactive: 0.008	inactive: 0.039	inactive: -0.042	inactive: 0	inactive: 0.071	inactive: -0.141	inactive: 0.052	inactive: 0.014	inactive: -0.146	inactive: -0.012	inactive: 0.01	inactive: -0.005	inactive: 0.097	inactive: -0.004	inactive: 0.026	inactive: 0.02	inactive: -0.02	inactive: 0.021	inactive: 0.056
SEPTIN6 (UniProt Q14141)	inactive: 0.035	inactive: 0.016	inactive: 0.012	inactive: 0.021	inactive: 0.041	inactive: -0.018	inactive: 0.023	inactive: 0.002	inactive: 0.005	inactive: 0.044	inactive: 0.014	inactive: 0.073	inactive: -0.007	inactive: -0.025	inactive: -0.027	inactive: -0.002	inactive: -0.029	inactive: -0.034	inactive: -0.015	inactive: -0.096
SCYL2 (UniProt Q6P3W7)	inactive: -0.003	inactive: 0.01	inactive: 0.05	inactive: 0.081	inactive: -0.001	inactive: 0.02	inactive: -0.041	inactive: 0.015	inactive: 0.011	inactive: -0.034	inactive: -0.061	inactive: 0.045	inactive: 0.006	inactive: -0.016	inactive: -0.003	inactive: 0.073	inactive: 0.028	inactive: 0.025	inactive: 0.003	inactive: 0.016
SEC24C (UniProt P53992)	inactive: 0.015	inactive: 0.018	inactive: 0.002	inactive: -0.034	inactive: -0.027	inactive: -0.018	inactive: -0.05	inactive: 0.013	inactive: 0.02	inactive: -0.017	inactive: 0.025	inactive: -0.019	inactive: 0.009	inactive: -0.007	inactive: 0.006	inactive: 0.011	inactive: 0.077	inactive: -0.006	inactive: 0.005	inactive: -0.019
SELENBP1 isoform 4 (UniProt Q13228)	inactive: -0.015	inactive: 0.018	inactive: -0.021	inactive: 0.014	inactive: 0.02	inactive: -0.009	inactive: 0.004	inactive: 0.008	inactive: -0.025	inactive: -0.007	inactive: 0.006	inactive: 0.024	inactive: -0.008	inactive: 0.023	inactive: 0.017	inactive: -0.016	inactive: -0.017	inactive: -0.013	inactive: 0.01	inactive: 0.005
SEMA4B (UniProt Q9NPR2)	inactive: 0.044	inactive: 0	inactive: -0.072	inactive: 0.07	inactive: -0.127	inactive: -0.036	inactive: 0.069	inactive: 0.003	inactive: 0.122	inactive: 0.084	inactive: -0.055	inactive: 0.138	inactive: 0.004	inactive: -0.095	inactive: -0.061	inactive: -0.248	inactive: 0.113	inactive: -0.105	inactive: 0.09	inactive: 0.051
SAE1 (UniProt Q9UBE0)	inactive: 0.002	inactive: -0.013	inactive: -0.036	inactive: -0.015	inactive: 0.005	inactive: 0.002	inactive: -0.007	inactive: 0.028	inactive: 0.004	inactive: -0.002	inactive: 0.019	inactive: 0.004	inactive: -0.022	inactive: -0.036	inactive: -0.015	inactive: -0.022	inactive: 0.017	inactive: -0.007	inactive: 0.003	inactive: -0.042
SCAMP1 (UniProt O15126)	inactive: -0.026	inactive: 0.015	inactive: 0.006	inactive: 0.028	inactive: 0.032	inactive: -0.071	inactive: -0.145	inactive: 0.06	inactive: -0.008	inactive: 0.03	inactive: -0.118	inactive: 0.043	inactive: -0.059	inactive: -0.027	inactive: 0.006	inactive: 0.011	inactive: -0.019	inactive: 0.046	inactive: 0.038	inactive: 0.061
S100P (UniProt P25815)	inactive: 0.018	inactive: -0.045	inactive: 0.245	inactive: 0.002	inactive: 0.104	inactive: 0.062	inactive: 0.049	inactive: -0.223	inactive: -0.029	inactive: -0.093	inactive: 0.186	inactive: 0.132	inactive: 0.024	inactive: 0.029	inactive: 0.014	inactive: 0.007	inactive: -0.049	inactive: 0.028	inactive: -0.056	inactive: -0.221
SASS6 (UniProt Q6UVJ0)	inactive: 0.042	inactive: -0.024	inactive: -0.016	inactive: 0.039	inactive: -0.024	inactive: 0.024	inactive: 0.154	inactive: -0.047	inactive: 0.059	inactive: -0.02	inactive: 0.051	inactive: -0.104	inactive: 0.018	inactive: 0.03	inactive: -0.002	inactive: 0.053	inactive: 0.085	inactive: -0.019	inactive: 0.005	inactive: 0.001
SCO2 (UniProt O43819)	inactive: -0.064	inactive: 0.054	inactive: 0.019	inactive: -0.075	inactive: -0.028	inactive: -0.087	inactive: -0.235	inactive: 0.076	inactive: -0.046	inactive: 0.003	inactive: -0.009	inactive: 0.039	inactive: 0.073	inactive: 0.008	inactive: -0.007	inactive: 0.027	active: -0.607	inactive: -0.115	inactive: 0.046	inactive: 0.114
SELENOS (UniProt Q9BQE4)	inactive: 0.097	inactive: -0.015	inactive: 0.003	inactive: -0.036	inactive: 0.066	inactive: 0.02	inactive: -0.059	inactive: 0.005	inactive: -0.047	inactive: 0.042	inactive: 0.021	inactive: 0.037	inactive: 0.008	inactive: 0.071	inactive: 0.006	inactive: 0.052	inactive: -0.076	inactive: -0.009	inactive: -0.078	inactive: -0.059

As entered above.
For log2 fold change [6], SELENOS (UniProt Q9BQE4) reads inactive: 0.02
For log2 fold change [15], SDHA (UniProt P31040) reads inactive: 0.002
